For the test, the target named is RELA (human (endogenous in A549)), Q04206. Nature of the test: proximity ligation; Duolink In-Situ Red on fixed (2% paraformaldehyde), permeabilised A549 cells; mouse and rabbit antibody pairs against the two endogenous proteins; cells not stimulated or treated with budesonide (300 nM), IL1B (1 ng/mL) or both for 1 h (IL1B 15 min for RELA and IκBα); signal when probes are within 30-40 nm; spots counted in nuclei and outside. As to conditions: remark: other sources report otherwise.

No constants are given. Whether binding was seen depends on the method and setting. Binding seen in cells or lysates may run through a third protein. Some entries that bind do so weakly or less than the wild type.

B1: inhibitor of κBα, P25963 1-317 (protein)
chain: MFQAAERPQEWAMEGPRDGLKKERLLDDRHDSGLDSMKDEEYEQMVKELQEIRLEPQEVPRGSEPWKQQLTEDGDSFLHLAIIHEEKALTMEVIRQVKGDLAFLNFQNNLQQTPLHLAVITNQPEIAEALLGAGCDPELRDFRGNTPLHLACEQGCLASVGVLTQSCTTPHLHSILKATNYNGHTCLHLASIHGYLGIVELLVSLGADVNAQEPCNGRTALHLAVDLQNPDLVSLLLKCGADVNRVTYQGYSPYQLTWGRPSTRIQQQLGQLTLENLQMLPESEDEESYDTESEFTEFTEDELPYDDCVFGGQRLTL
With B1, the binding entry is “binds”.
